Source: PMC6155007

Amino acid sequences for entries named in this document (tags omitted).
UniProt Q13547: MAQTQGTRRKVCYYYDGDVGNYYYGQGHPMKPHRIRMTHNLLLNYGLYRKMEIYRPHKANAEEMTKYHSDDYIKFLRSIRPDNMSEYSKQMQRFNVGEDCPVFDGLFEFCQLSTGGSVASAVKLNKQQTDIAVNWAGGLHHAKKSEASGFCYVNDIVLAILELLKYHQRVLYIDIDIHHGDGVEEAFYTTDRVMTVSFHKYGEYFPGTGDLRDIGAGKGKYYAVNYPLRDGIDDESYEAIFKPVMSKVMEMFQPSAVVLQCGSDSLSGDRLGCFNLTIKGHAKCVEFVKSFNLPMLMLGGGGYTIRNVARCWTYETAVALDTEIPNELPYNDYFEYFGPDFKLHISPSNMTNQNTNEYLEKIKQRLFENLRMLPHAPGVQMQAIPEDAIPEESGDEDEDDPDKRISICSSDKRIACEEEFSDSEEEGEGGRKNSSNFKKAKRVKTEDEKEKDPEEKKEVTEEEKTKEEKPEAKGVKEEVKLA

Target: T1, RSF1 (bait of the tandem affinity purification) (human) (UniProt Q96T23)
T1 sequence: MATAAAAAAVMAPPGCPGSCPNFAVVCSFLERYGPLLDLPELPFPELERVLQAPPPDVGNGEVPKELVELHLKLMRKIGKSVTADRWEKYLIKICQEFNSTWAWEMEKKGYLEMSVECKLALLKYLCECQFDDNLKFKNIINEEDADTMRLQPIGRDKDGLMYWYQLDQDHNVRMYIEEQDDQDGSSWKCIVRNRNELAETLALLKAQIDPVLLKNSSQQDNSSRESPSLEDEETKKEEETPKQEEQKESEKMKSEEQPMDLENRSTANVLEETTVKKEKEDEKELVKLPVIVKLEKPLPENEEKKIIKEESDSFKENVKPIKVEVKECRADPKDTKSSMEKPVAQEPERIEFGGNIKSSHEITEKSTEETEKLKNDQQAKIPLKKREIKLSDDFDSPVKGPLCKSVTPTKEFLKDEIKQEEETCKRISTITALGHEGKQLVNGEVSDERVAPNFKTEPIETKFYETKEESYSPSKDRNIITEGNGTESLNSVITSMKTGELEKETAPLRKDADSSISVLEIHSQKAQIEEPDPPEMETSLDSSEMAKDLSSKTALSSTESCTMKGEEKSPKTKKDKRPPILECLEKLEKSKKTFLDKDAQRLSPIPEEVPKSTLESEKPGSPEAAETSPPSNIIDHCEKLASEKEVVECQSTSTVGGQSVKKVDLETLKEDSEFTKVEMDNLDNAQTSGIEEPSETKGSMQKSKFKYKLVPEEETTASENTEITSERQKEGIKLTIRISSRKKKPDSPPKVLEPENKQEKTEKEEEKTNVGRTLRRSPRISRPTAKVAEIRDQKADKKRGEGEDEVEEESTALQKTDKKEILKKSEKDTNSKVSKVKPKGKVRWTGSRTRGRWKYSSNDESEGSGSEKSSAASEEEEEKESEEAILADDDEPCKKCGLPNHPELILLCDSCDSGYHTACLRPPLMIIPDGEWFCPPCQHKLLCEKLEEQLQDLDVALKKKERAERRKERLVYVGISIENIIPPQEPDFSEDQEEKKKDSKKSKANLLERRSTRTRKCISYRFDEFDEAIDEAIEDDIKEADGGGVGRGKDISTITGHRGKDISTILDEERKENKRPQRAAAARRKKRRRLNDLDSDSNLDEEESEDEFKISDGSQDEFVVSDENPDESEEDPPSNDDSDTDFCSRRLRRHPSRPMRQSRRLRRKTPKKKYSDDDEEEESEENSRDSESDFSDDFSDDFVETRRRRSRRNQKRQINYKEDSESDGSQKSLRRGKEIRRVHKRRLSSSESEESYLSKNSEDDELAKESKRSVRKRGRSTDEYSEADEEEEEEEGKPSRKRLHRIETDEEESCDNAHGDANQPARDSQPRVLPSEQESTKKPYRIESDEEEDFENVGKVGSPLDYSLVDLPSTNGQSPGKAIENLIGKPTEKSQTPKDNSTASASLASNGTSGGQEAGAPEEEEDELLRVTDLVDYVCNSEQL
Assay: affinity purification with mass spectrometry; tandem affinity purification of RSF1 followed by mass spectrometry analysis

binding: binds
Substance: HDAC1 (endogenous) (from UniProt Q13547 1-482) (enzyme)

No constants are given. Whether binding was seen depends on the method and setting. In cells and extracts the contact can be indirect. Here binding means that the protein was enriched with, or labelled near, the bait; the list need not be complete.
